# Test results: patent publication US20190374623A1, “TREATMENTS FOR HEART FAILURE AND CARDIAC ISCHAEMIC REPERFUSION INJURY” (priority 2016, published 2019)
# At least one compound was matched to its structure with a doubt left.
# Tests used:
# [1] = tested on: SDF-1; test: SDF-1 immunohistochemistry of rat heart sections after shockwave and/or DPP4i treatment; format: in vivo, Male Lewis rats; conditions: 3 mg per rat
# [2] = tested on: rat hearts; test: Appearance of fixed rat hearts (blood vessels, angiogenesis) after shockwave and/or DPP4i treatment; format: in vivo, Male Lewis rats; conditions: 3 mg per rat daily, 4 days
# [3] = tested on: AKT phosphorylation in rat cardiomyocytes; test: AKT phosphorylation in rat cardiomyocytes (Western Blot); format: cell-based; conditions: shockwaves 1000 pulses at 1 bar, FIG. 7
# [4] = tested on: hypoxic cardiomyocytes; test: Anti-apoptotic effect of shockwaves on hypoxic cardiomyocytes with PI3K/Akt pathway inhibitor; format: cell-based, rat; conditions: hypoxic cardiomyocytes treated with shockwaves (see Example 5)
structure (smiles),measurement,setting,value
"CC#CCn1c(N2CCC[C@@H](N)C2)nc2c1c(=O)n(Cc1nc(C)c3ccccc3n1)c(=O)n2C [DPP4i, Linagliptin]",Presence of SDF-1 (brown DAB deposits) in heart tissue,"[1]; daily DPP4i oral gavages only, 4 days, FIG. 9D",no brown deposits were observed
same,Presence of SDF-1 in heart tissue relative to shockwaves only or DPP4i only,"[1]; extracorporeal cardiac shockwave on day 2 of 4 plus daily DPP4i oral gavages, FIG. 9C",significant increase in SDF-1
same,Effect on angiogenic process / appearance of fixed hearts versus untreated,"[2]; DPP4i only, FIG. 10D",neutral effect
same,Appearance of blood vessels of fixed hearts compared to shockwaves only,"[2]; shockwave and DPP4i, FIG. 10C",very prominent blood vessels
O=c1cc(N2CCOCC2)oc2c(-c3ccccc3)cccc12 [LY294002],Effect of inhibitor on shockwave-induced increase of AKT phosphorylation,[3],not blocked
same,Effect of inhibitor on the anti-apoptotic effect caused by shockwaves,[4],did not affect the anti-apoptotic effect
